# Primary screen of a compound library

Amino acid sequences for entries named in this document (tags omitted).
UniProt I6X8D2, whole entry: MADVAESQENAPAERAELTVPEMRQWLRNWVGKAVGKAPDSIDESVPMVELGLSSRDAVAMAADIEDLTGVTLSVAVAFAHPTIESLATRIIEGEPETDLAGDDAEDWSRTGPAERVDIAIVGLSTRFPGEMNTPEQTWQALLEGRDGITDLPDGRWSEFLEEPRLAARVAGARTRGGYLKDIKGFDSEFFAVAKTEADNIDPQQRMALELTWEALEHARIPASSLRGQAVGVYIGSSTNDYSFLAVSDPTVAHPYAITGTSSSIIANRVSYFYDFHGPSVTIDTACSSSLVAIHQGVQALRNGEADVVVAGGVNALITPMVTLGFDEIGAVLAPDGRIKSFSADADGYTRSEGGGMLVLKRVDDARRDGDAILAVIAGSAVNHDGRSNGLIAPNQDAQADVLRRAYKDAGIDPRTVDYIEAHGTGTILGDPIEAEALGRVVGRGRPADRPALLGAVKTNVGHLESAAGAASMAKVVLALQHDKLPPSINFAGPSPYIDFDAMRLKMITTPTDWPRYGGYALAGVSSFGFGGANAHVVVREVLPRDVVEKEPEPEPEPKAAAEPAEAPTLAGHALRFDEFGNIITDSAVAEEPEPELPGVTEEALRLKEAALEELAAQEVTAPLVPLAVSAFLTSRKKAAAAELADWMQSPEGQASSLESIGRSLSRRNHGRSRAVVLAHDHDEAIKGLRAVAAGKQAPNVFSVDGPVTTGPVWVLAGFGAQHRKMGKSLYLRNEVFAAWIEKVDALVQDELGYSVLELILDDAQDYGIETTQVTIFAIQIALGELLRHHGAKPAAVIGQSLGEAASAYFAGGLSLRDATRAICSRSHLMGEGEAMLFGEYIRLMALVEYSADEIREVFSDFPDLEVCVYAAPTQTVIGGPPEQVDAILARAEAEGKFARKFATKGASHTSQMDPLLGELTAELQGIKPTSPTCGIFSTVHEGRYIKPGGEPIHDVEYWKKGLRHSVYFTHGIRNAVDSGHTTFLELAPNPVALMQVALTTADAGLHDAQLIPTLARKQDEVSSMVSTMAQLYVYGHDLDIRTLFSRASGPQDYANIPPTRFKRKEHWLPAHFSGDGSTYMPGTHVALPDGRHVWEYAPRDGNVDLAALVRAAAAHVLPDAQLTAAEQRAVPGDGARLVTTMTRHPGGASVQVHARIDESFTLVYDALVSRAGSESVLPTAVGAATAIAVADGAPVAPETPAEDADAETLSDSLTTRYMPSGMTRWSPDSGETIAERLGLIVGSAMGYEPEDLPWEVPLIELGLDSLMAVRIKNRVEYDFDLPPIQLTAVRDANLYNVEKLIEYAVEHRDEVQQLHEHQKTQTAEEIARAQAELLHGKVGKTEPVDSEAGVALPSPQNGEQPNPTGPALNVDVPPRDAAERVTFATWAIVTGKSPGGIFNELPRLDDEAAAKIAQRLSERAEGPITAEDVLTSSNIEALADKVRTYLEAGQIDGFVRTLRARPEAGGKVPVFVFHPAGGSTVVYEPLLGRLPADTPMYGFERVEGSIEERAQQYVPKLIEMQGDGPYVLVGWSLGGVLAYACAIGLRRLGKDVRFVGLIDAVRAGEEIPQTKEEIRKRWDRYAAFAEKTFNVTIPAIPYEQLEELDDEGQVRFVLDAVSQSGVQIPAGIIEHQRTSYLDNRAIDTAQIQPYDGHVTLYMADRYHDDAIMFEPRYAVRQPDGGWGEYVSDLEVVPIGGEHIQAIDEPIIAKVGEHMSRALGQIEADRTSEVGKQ

Values are the deposited “Percent Effect”, in %.
The controls that fix the scale are not given in the record; negative values are as filed.
The compounds are a random part of those screened.

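Polyketide synthase Pks13, Mycobacterium tuberculosis (UniProt I6X8D2). Enzyme assay of the thioesterase domain of polyketide synthase 13; the read-out is not stated. Tested at 30 µM. Higher reads as stronger inhibition (inferred from which compounds were picked for retests). About 67,000 compounds were tested under these conditions; 0.46% (about 300) showed 50% or more at least once.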

{"structure": "Cn1c(CNCC2CCCN2c2cccnn2)nc2ccccc21", "stereo": "centres undefined", "effect": -5.568}
{"structure": "COc1ccc(OCc2cc(C(=O)N3C[C@@H](C)O[C@@H](C)C3)n[nH]2)c(Cl)c1", "effect": -10.26}
{"structure": "COc1ccccc1-c1ncc(CN2C[C@H](O)[C@@H](N3CCCC3)C2)s1", "effect": -12.5}
{"structure": "Cc1noc(C)c1-c1nc(C2CCCN(C(=O)CCN)C2)ccc1CO", "stereo": "centres undefined", "effect": -9.599}
{"structure": "CC(O)CNC(=O)CCc1nc2ncccc2[nH]1", "stereo": "centres undefined", "effect": -33.9}
{"structure": "CCn1cc(CN(C)S(=O)(=O)c2ccc(Cl)cc2)cn1", "effect": -16.26}
{"structure": "CC(C(=O)NCc1ccco1)N1CCN(Cc2nccn2C)CC1", "stereo": "centres undefined", "effect": -12.85}
{"structure": "Cc1nn(C)c2nc(O)cc(C(F)(F)C(F)(F)F)c12", "effect": -5.746}
{"structure": "c1cnc(N2CCO[C@H]3[C@H](OCc4cccnc4)CC[C@@H]32)nc1", "effect": 3.015}
{"structure": "Cc1cc(NC(=O)N2CCCC2C(=O)NC2CC2)c2ncccc2c1", "stereo": "centres undefined", "effect": 0.9898}
{"structure": "N#CCCN(Cc1cccnc1)C(=O)c1cc(Cl)c[nH]1", "effect": -16.68}
{"structure": "CC1CCCCN1Cc1nc(C2CC2)no1", "stereo": "centres undefined", "effect": -29.63}
{"structure": "CC(Cn1cncn1)NCCN1CCc2ccccc21", "stereo": "centres undefined", "effect": -24.22}
{"structure": "Cc1noc(CCCC(=O)NC(C)c2ccc(Cl)s2)n1", "stereo": "centres undefined", "effect": 4.789}
{"structure": "c1nc(N2CCCC2Cn2cncn2)c2ccsc2n1", "stereo": "centres undefined", "effect": -2.915}
{"structure": "COCc1cn(CC2CCN(Cc3c(C)[nH]c4ccccc34)CC2)nn1", "effect": -17.69}
{"structure": "CC(=O)N1CC(=O)N(c2ccccc2)CC12CCN(Cc1ccoc1)C2", "stereo": "centres undefined", "effect": -14.92}
{"structure": "Cc1cn2c(n1)CCC(NC(=O)c1cc(C3CC3)[nH]n1)C2", "stereo": "centres undefined", "effect": -14.42}
{"structure": "CC(C)(C)C(=O)N1CCN(C(=O)Nc2cnn(CC(F)F)c2)CC1", "effect": -32.26}
{"structure": "c1cnnc(N2CCCC2CNCc2nc(-c3ccco3)no2)c1", "stereo": "centres undefined", "effect": 18.27}
{"structure": "Cc1nccn1-c1ccc(NS(=O)(=O)c2cnn(C(C)C)c2)cn1", "effect": -24.66}
{"structure": "O=C(NCC1CCCCC1)c1nnn(-c2ccc(Br)cc2)n1", "effect": -29.73}
{"structure": "Cc1nc(COC[C@H]2CC[C@H]3NCC[C@H]3O2)cs1", "effect": -25.16}
{"structure": "Cc1nc2c(c(C)c1CC(=O)NC(C)c1ccccc1)c(=O)[nH]n2C", "stereo": "centres undefined", "effect": -15.69}
{"structure": "c1cnc(N2CCCC(Cc3nccs3)C2)nc1", "stereo": "centres undefined", "effect": 9.854}
{"structure": "CCn1ncc(C(=O)NCc2ccc(C)c(OC)c2)c1C(F)(F)F", "effect": 42.94}
{"structure": "CC(=O)NCCc1ccc(S(=O)(=O)N(C)C(C)C(C)(C)C)s1", "stereo": "centres undefined", "effect": -18.28}
{"structure": "COCCN(C)C(=O)c1cc2c(s1)CCN2C(=O)C1CC1", "effect": 5.334}
{"structure": "CC(C)CNC(=O)c1ccc(NC(=O)NC(C)(C)CO)cc1Cl", "effect": -0.08677}
{"structure": "Cc1occc1C(=O)N1CCC2(CC1)CC(c1cccnc1)C(=O)N2C", "stereo": "centres undefined", "effect": -4.57}
{"structure": "Cc1ccccc1-c1cncc(C2CCN(C(=O)CN(C)C)CC2)n1", "effect": -51.23}
{"structure": "CCSc1cncc(NCc2ccc(N3CCNC(=O)C3)cc2)n1", "effect": 20.64}
{"structure": "CCC(CN1CCCC1)n1cncc1-c1cnn(-c2ccccc2)c1", "stereo": "centres undefined", "effect": -10.39}

Some entries from above, unchanged:

For CCC(CN1CCCC1)n1cncc1-c1cnn(-c2ccccc2)c1 (centres undefined) the result was -10.39%.
For O=C(NCC1CCCCC1)c1nnn(-c2ccc(Br)cc2)n1 the result was -29.73%.
For COc1ccc(OCc2cc(C(=O)N3C[C@@H](C)O[C@@H](C)C3)n[nH]2)c(Cl)c1 the result was -10.26%.

From ChEMBL document CHEMBL3988442, “University of Dundee, Small-Polar-MMV Screening Library” (2021).